The results in this text go back to paper PMC11289934.

Sequences of proteins named here, by UniProt entry; tags and fusion partners are left off.
UniProt Q9Y6M1: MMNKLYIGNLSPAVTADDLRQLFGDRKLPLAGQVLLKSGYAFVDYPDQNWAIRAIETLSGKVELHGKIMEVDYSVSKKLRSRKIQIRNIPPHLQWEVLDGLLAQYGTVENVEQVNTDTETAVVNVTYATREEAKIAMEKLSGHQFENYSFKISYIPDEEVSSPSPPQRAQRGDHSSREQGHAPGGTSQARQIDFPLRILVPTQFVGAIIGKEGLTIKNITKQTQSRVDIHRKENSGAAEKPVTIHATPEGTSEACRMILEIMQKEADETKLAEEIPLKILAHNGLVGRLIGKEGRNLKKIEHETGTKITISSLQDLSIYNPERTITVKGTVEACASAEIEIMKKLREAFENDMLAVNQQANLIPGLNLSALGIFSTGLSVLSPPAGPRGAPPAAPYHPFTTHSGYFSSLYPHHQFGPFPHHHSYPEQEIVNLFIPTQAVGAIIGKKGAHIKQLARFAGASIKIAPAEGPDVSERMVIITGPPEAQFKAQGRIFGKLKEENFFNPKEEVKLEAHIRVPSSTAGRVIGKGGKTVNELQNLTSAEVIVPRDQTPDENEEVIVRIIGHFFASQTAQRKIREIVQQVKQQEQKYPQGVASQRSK
UniProt Q14258: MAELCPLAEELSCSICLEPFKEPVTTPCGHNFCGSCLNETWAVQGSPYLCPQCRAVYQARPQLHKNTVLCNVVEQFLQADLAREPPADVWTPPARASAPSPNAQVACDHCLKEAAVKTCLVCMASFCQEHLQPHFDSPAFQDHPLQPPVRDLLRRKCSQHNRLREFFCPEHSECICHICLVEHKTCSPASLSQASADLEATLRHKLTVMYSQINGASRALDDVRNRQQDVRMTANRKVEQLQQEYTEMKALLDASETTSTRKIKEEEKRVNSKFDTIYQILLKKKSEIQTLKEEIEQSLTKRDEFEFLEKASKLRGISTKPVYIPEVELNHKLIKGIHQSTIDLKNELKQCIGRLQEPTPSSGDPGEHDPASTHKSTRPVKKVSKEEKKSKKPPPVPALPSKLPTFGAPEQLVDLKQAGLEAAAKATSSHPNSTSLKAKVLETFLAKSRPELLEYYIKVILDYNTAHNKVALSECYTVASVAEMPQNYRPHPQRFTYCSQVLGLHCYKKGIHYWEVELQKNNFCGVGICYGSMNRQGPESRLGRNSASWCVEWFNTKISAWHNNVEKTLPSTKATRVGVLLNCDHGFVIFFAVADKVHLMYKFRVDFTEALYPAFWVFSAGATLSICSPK

Results are given in words; binding and its absence hold for the method and conditions named. In cells and extracts the contact can be indirect. These calls come from enrichment with a bait or labelling near it, and not all partners need be listed.

For this assay, the target named is IGF2BP2 (human (endogenous in MKN-45 and MKN-28)) (UniProt Q9Y6M1). Description: affinity purification with mass spectrometry; mass spectrometry (Fig. 5B); bait, cells and conditions not told.

Turning to “E3 ligase TRIM25 (from UniProt Q14258 1-630) (enzyme)”, the binding entry was “binds”.
